Our source for the binding signal values is article PMC7819943, “Rice protein-binding microarrays: a tool to detect cis-acting elements near promoter regions in rice”.

The other results are listed elsewhere or left out.

For the test, the target named is T1, OsSMF1 (Oryza sativa, UniProt Q6ZLB0 1-436).
T1 sequence: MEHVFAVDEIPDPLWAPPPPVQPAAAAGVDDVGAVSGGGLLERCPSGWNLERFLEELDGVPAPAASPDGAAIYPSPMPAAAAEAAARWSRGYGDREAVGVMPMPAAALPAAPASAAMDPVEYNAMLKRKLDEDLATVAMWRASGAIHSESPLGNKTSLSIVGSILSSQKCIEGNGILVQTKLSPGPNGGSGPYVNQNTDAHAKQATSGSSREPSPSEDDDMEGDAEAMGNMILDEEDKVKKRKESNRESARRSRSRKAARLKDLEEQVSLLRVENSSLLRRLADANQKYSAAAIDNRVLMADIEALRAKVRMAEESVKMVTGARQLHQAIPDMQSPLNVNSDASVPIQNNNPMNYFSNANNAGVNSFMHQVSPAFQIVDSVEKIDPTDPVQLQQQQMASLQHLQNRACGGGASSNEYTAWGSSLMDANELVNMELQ
As to the kind of experiment: protein-binding microarray (RPBM); PBS, 2% BSA, 51.3 ng/ul salmon testes DNA, 50 uM zinc acetate, 200 nM TF, 25 C, 1 h; high values mean tight binding. The conditions noted are these: protein: recombinant; tags: N-terminal polyhistidine and DsRed monomer fusion (pET32a); chain copies: 2; label: CyDye5-dUTP incorporated in the synthesized complementary strand; 3' TTTTT single-stranded linker to array surface; dsDNA, one strand shown. The procedure, abridged:
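Transcription factors were made in E. coli BL21-CodonPlus as N-terminal fusions to a polyhistidine tag and DsRed, then purified on Ni–NTA. After primer extension with Cy5-dUTP and blocking with 2% BSA, a custom Agilent array was exposed for 1 h at 25 °C to 200 nM protein in PBS, 2% BSA, salmon testes DNA and 50 µM zinc acetate. Washed arrays were scanned on an Axon 4000B, and the binding signal is per-feature fluorescence intensity in arbitrary units.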
For the sequence “TGTAGGAAGATATTCCTTTAGTCCTGCCACGCAACCACAACGGAGTCACCTAGTGCAG”, the binding signal is 6570 fluorescence intensity (a.u.). For the sequence “ATGTAGTTTGATCACGTCGGACACACGCTTCAGTGAATTCCGGAGTCACCTAGTGCAG”, the binding signal was 4060 fluorescence intensity (a.u.). Consider “GTTCGCAGAATTCCCAATACAACCACACATCTACAAGGGCCGGAGTCACCTAGTGCAG”, for which the binding signal is 3180 fluorescence intensity (a.u.). With “ATTCTTCCCCATTTCCTTTGGAGTCATGCAAGAATTTCACCGGAGTCACCTAGTGCAG” the figure was 3670 fluorescence intensity (a.u.); with “GTCCTTGAGCGCCTCGACGGAGGTCTGCAGCCTAGAAATGCGGAGTCACCTAGTGCAG”, 3180 fluorescence intensity (a.u.). With “GAGTGCCCTGGGGTGGTGACGTGGAATACAATGCTATCTACGGAGTCACCTAGTGCAG” the figure was 10300 fluorescence intensity (a.u.).

Turning to “ACCTGGACACGTCGACACGATCACATGGTCCATCATCCTGCGGAGTCACCTAGTGCAG”, the binding signal is 14000 fluorescence intensity (a.u.).

As to “GTAGGGTCCACGTGGGGCCCTACACTGACTCAGCCACCACCGGAGTCACCTAGTGCAG”, the binding signal is 16400 fluorescence intensity (a.u.).

On to “CCATCCAGTTTAACTAGCATGTACAAAATTACGTGGAGAACGGAGTCACCTAGTGCAG”, for which the binding signal was 6760 fluorescence intensity (a.u.).

Turning to “AACGGGGAGAGCCCAGCTGACGTGGCGTCATACAGCCACTCGGAGTCACCTAGTGCAG”, the binding signal was 17800 fluorescence intensity (a.u.).

“GAGTTACCACGAGATGACACGTAGGATAAAGAGCTTTGAACGGAGTCACCTAGTGCAG”: the binding signal was 8600 fluorescence intensity (a.u.). With “ATTCGACGAGATTTTCTGGTGACTTGGCTTCACGTGCTCCCGGAGTCACCTAGTGCAG” the figure was 6960 fluorescence intensity (a.u.); with “ACGGATTCCTGTTAATAGAGTGTTTCCGTAATATGTGGCACGGAGTCACCTAGTGCAG”, 3820 fluorescence intensity (a.u.). With “CAACAAGGCATTTAGCACCGAAGTCCTACGTGCCAACGTGCGGAGTCACCTAGTGCAG” the figure was 4150 fluorescence intensity (a.u.). As to “CCTCCACGAGTCAAACCCAGCCACCATCGGAATTCGAGGGCGGAGTCACCTAGTGCAG”, the binding signal was 28600 fluorescence intensity (a.u.). As for “CTAGCTATTGCTACAGCACATCTTCGATATCATGACCTAACGGAGTCACCTAGTGCAG”, the binding signal is 32300 fluorescence intensity (a.u.).

“TCCTTTCCAAGTTCTATTTGGACTGAGACTGTTACGTGGGCGGAGTCACCTAGTGCAG”: the binding signal was 3730 fluorescence intensity (a.u.). With “ATTTCTGAGCGTGACACCGATGACATCACTAAAAGAAACTCGGAGTCACCTAGTGCAG” the figure was 5480 fluorescence intensity (a.u.); with “GACCCACCTGGAAGCCTCTCTGAGTCACTTCTTCTCTGTCCGGAGTCACCTAGTGCAG”, 8360 fluorescence intensity (a.u.); with “TCCACGTAGACTCCACCTATCAGGATGCTACGTCATCTCTCGGAGTCACCTAGTGCAG”, 20200 fluorescence intensity (a.u.).

Consider “AAACATCACATGCGACACCTTATATAATACCCGATATGACCGGAGTCACCTAGTGCAG”, for which the binding signal is 3620 fluorescence intensity (a.u.).

Turning to “TGAGAGTAGTCACCATCTCAATTAGACCTTTTGGTGCTAGCGGAGTCACCTAGTGCAG”, the binding signal was 3710 fluorescence intensity (a.u.). On to “ATGCCTCACCGGTGACGGCATCCCGTATAACCCGTCAAAGCGGAGTCACCTAGTGCAG”, for which the binding signal was 3820 fluorescence intensity (a.u.).
